Assay results: the supplement of paper PMC10849652
Some of the results follow.

Chains of the proteins cited; added tags and fusions are not shown. Lines headed by an entry give the natural chain unless they say otherwise; changes in a name come on top.
UniProt P49888: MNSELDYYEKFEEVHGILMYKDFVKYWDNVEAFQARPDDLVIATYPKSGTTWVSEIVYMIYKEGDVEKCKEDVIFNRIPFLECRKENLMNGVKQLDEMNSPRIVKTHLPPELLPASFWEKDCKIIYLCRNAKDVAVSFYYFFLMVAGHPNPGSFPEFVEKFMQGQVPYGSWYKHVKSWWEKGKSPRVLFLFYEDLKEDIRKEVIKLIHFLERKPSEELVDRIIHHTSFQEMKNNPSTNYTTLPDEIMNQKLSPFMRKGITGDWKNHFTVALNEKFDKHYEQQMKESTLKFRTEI
UniProt Q6ICL3: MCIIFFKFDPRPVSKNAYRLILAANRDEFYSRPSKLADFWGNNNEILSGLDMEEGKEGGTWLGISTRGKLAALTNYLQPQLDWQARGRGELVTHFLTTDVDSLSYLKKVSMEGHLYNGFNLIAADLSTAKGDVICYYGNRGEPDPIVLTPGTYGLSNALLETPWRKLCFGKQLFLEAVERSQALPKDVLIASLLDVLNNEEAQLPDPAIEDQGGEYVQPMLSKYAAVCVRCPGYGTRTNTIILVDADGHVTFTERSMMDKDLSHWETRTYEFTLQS
UniProt P61956, whole entry, looked up: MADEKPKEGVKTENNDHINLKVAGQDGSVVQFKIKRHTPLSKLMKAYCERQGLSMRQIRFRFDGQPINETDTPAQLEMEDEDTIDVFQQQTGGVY
UniProt P08842: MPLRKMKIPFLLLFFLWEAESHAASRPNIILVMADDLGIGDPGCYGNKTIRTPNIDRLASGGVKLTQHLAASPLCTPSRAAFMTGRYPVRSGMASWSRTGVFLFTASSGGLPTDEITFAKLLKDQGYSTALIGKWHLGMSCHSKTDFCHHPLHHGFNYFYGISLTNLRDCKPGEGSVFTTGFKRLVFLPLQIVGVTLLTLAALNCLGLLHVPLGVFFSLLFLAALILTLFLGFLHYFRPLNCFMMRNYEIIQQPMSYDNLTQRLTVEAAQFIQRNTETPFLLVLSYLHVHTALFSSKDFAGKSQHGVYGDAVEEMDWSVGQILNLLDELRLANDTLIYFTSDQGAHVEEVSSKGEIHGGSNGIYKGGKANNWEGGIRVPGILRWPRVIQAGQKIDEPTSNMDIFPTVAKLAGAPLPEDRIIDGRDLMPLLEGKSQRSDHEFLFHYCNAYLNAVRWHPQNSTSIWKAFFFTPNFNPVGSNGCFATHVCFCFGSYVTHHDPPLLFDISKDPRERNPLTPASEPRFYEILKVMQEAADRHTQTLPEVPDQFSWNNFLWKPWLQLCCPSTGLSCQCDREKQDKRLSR
UniProt Q15545, whole entry, looked up: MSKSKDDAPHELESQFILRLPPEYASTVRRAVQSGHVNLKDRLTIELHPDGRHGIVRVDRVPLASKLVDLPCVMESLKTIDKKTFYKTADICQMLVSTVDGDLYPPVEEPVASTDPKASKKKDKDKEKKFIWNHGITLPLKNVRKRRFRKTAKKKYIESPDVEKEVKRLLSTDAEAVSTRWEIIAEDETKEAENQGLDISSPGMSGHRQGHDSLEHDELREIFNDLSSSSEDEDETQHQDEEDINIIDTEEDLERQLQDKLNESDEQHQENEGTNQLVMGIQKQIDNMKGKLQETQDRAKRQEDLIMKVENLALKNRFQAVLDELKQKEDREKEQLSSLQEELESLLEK
UniProt Q9UH99: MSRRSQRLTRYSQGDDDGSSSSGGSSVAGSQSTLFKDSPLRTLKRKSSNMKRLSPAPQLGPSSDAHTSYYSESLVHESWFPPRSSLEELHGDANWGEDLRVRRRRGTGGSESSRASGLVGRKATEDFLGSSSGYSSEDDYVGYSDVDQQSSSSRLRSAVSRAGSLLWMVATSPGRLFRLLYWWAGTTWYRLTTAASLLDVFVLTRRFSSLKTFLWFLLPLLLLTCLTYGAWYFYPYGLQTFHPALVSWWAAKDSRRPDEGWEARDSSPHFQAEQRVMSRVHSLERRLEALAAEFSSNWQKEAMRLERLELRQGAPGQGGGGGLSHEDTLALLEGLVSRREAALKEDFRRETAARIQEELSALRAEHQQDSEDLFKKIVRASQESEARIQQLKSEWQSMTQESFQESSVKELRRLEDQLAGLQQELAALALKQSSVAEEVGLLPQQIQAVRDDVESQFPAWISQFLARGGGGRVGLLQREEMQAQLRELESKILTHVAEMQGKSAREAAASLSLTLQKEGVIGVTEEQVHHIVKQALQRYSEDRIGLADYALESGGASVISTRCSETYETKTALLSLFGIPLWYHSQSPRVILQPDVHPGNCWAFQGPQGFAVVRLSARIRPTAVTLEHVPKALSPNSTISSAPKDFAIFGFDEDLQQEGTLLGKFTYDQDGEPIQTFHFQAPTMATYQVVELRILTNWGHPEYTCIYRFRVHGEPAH
UniProt Q6P1X5, whole entry, looked up: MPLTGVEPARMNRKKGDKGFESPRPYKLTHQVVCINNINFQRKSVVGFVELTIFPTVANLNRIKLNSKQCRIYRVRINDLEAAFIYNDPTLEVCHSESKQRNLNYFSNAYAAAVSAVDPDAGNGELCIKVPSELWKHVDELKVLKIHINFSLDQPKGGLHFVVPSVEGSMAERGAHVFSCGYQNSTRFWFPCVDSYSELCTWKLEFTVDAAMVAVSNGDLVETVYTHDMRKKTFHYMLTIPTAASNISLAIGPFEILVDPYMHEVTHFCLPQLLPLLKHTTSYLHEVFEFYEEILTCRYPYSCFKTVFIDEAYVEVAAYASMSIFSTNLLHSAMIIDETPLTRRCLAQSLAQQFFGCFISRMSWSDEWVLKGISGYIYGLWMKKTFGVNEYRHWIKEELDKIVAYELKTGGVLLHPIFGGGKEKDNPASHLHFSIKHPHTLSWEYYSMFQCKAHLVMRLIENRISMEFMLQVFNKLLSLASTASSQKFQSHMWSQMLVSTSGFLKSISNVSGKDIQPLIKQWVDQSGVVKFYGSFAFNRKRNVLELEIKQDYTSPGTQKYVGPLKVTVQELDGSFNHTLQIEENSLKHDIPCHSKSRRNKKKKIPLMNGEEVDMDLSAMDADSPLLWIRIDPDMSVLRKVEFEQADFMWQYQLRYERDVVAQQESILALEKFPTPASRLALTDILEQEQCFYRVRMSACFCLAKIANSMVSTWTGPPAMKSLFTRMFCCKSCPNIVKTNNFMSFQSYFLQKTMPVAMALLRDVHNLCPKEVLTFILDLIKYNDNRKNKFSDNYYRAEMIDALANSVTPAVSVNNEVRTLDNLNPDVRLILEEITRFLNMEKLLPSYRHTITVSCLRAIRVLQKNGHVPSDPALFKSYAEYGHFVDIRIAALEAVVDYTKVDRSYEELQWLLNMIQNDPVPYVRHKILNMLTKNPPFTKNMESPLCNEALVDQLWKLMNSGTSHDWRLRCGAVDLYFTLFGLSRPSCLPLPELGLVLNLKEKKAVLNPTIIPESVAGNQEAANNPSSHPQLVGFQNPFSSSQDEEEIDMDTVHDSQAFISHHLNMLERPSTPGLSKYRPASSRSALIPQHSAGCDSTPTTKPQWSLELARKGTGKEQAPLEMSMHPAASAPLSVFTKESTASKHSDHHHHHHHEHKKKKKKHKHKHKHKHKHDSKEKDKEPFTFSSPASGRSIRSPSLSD
UniProt P56962: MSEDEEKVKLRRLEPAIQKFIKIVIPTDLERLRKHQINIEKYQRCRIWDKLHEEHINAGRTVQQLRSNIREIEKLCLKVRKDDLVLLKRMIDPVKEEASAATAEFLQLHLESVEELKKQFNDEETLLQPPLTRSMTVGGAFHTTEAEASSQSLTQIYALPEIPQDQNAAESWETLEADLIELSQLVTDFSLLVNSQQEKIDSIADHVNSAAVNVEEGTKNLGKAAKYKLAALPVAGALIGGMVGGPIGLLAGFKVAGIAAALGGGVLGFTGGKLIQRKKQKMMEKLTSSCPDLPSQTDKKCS
UniProt O15400: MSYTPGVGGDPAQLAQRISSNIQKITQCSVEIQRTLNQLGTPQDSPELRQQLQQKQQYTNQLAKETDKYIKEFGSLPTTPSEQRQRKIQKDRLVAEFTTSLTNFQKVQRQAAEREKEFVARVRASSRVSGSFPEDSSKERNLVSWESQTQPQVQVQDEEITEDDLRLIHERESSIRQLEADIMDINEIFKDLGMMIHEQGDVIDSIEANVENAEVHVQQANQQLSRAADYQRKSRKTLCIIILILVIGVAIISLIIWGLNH
UniProt Q01995: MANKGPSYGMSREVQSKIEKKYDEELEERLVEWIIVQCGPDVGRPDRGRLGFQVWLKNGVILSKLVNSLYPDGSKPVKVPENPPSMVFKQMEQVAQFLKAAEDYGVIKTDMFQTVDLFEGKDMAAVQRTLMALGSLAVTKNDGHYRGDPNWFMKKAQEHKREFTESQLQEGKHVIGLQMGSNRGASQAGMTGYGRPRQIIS
UniProt Q13033: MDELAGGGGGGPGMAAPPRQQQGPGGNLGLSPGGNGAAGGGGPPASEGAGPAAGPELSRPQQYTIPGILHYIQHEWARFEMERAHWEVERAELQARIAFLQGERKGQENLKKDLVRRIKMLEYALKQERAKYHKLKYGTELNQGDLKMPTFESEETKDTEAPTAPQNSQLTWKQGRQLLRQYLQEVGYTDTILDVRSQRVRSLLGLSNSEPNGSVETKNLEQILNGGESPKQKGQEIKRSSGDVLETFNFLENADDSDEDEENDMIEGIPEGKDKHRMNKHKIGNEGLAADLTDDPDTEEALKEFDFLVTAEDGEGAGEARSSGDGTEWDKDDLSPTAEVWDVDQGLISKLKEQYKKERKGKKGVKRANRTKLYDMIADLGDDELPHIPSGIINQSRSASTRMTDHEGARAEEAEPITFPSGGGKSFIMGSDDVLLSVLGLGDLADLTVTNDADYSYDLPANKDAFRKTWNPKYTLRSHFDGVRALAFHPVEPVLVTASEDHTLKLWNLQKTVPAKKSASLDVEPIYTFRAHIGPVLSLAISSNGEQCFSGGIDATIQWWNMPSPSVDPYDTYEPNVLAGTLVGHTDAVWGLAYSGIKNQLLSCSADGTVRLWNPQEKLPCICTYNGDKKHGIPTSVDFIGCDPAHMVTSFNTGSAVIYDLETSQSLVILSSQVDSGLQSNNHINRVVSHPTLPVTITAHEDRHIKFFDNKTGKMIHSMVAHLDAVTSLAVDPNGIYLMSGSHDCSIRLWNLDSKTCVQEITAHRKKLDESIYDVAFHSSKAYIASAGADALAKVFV
UniProt Q9P289: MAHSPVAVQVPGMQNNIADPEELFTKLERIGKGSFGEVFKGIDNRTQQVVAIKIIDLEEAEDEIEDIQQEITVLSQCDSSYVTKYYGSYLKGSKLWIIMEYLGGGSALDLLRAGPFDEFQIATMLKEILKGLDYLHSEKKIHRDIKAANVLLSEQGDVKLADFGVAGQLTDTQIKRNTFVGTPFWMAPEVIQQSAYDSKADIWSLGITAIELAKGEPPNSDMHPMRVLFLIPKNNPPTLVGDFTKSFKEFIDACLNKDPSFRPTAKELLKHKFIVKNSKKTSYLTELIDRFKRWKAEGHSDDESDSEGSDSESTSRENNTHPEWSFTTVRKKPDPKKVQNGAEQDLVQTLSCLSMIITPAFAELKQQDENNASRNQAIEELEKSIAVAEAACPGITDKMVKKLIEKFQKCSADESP
UniProt Q96I99: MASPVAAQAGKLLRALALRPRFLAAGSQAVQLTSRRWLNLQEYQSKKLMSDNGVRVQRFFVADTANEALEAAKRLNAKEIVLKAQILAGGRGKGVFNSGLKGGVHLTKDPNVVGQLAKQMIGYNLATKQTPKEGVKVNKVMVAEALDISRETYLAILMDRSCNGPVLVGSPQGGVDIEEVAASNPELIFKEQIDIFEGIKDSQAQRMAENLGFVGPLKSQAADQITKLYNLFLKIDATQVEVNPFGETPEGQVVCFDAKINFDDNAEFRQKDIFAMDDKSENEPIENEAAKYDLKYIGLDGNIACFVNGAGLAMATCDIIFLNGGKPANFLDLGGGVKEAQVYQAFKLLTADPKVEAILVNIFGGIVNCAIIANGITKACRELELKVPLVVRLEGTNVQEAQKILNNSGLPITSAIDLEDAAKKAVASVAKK
UniProt P53597: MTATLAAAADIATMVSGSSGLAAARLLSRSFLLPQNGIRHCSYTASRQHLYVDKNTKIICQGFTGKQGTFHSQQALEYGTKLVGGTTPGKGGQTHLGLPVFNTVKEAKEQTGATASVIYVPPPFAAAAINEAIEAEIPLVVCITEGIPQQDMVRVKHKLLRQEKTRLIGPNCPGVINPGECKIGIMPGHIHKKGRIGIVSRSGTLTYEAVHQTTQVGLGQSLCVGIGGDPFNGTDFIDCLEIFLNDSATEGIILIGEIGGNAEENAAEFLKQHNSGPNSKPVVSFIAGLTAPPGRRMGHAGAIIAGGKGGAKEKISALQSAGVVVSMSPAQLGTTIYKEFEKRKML
UniProt P27105: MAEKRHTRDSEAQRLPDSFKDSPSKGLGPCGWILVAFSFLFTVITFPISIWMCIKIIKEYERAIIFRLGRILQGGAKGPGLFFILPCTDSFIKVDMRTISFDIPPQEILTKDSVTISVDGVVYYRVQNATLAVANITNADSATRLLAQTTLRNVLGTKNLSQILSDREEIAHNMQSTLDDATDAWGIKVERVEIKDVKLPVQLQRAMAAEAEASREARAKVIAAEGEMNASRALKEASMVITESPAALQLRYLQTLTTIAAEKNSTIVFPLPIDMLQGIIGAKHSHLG

Experiments:
Assay in all cases: log2 fold change, soluble protein after heating vs DMSO (PISA); higher = thermal stabilisation; K562 cells, 10 uM, 30 min; active = over 0.2 and 3.5 SD of the protein, either way, in both replicates (recomputed)
[1] = compound: C1=CC=C(C=C1)[C@H](COC2=CC3=C(C=C2)NC(=O)N3)NC(=O)C4=CC=CN(C4=O)CC5=CC(=C(C=C5)F)F
In short: (§1)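 Quantification of soluble protein used TMTpro 16plex LC-MS/MS, with channel sums equalised. Samples were the supernatant after 21,000xg for 90 min of pooled aliquots from K562 cells (2×10^6 cells/mL) treated with 10 μM compound for 30 min, heated for 3 min over 48°C-58°C, and extracted in PBS with 0.5% NP-40 at 4°C. Values, from duplicates, describe thermal stability against control samples on a log2 fold-change scale.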

[2] = compound: CC1=C(SC2=C1C(=N[C@H](C3=NN=C(N32)C)CC(=O)N)C4=CC=C(C=C4)Cl)C
In short: as §1

[3] = compound: CC1=C2C(=CC=C1)N=C(N(C2=O)C3=CC=CC=C3C)CN4C=NC5=C(N=CN=C54)N
In short: as §1

[4] = compound: Cc1sc2c(c1C)C(c1ccc(Cl)cc1)=N[C@@H](CC(=O)OC(C)(C)C)c1nnc(C)n1-2
In short: as §1

[5] = compound: c1ccc([C@@H]2C[C@H]2NC2CCNCC2)cc1
In short: as §1

Measured: log2 fold change

STRAP isoform 2 (UniProt Q9Y3F4)
inactive: [1] -0.004 | [2] 0.016 | [3] 0.007 | [4] 0.002 | [5] -0.007

SULT1E1 (UniProt P49888)
inactive: [1] 0.068

TANGO2 isoform 4 (UniProt Q6ICL3)
inactive: [1] -0.036 | [2] 0.061 | [3] 0.069 | [4] -0.029 | [5] -0.024

SUMO2 (UniProt P61956)
inactive: [1] 0.145 | [2] 0.021 | [3] -0.189 | [4] 0.12 | [5] 0.187

TAF5L (UniProt O75529)
inactive: [1] -0.218

STS (UniProt P08842)
inactive: [1] -0.009

TAF7 (UniProt Q15545)
inactive: [1] 0.047 | [2] 0.086 | [3] -0.036 | [4] -0.015 | [5] 0

SZRD1 (UniProt Q7Z422)
inactive: [1] 0.018 | [2] 0.026 | [3] 0.013 | [4] 0.069 | [5] 0.059

Two successive records out of the list so far:
SUMO2 (UniProt P61956)
inactive: [1] 0.145 | [2] 0.021 | [3] -0.189 | [4] 0.12 | [5] 0.187

TAF5L (UniProt O75529)
inactive: [1] -0.218

The list goes on:

STXBP5 (UniProt Q5T5C0)
inactive: [1] -0.011 | [2] 0.017 | [3] 0.15 | [4] -0.04 | [5] -0.027

SUPT5H (UniProt O00267)
inactive: [1] -0.05 | [2] 0.109 | [3] 0.106 | [4] 0.001 | [5] -0.051

SURF6 (UniProt O75683)
inactive: [1] 0.143 | [2] -0.133 | [3] 0.021 | [4] 0.199 | [5] 0.065

TACO1 (UniProt Q9BSH4)
inactive: [1] -0.013 | [2] 0.098 | [3] 0.028 | [4] -0.067 | [5] -0.034

SUOX (UniProt P51687)
inactive: [1] 0.01 | [2] 0 | [3] 0.096 | [4] -0.011 | [5] -0.021

SUN2 (UniProt Q9UH99)
inactive: [1] 0.029 | [2] -0.004 | [3] -0.025 | [4] 0.025 | [5] -0.015

TAF2 (UniProt Q6P1X5)
inactive: [1] 0.05 | [2] -0.015 | [3] -0.051 | [4] 0.072 | [5] -0.234

STX17 (UniProt P56962)
inactive: [1] 0.03 | [2] 0.006 | [3] 0.029 | [4] 0.004 | [5] -0.058

TATDN1 (UniProt Q6P1N9)
inactive: [1] -0.008 | [2] 0.002 | [3] -0.022 | [4] 0.03 | [5] 0.071

STX7 (UniProt O15400)
inactive: [1] 0.023 | [2] 0.01 | [3] 0.027 | [4] -0.011 | [5] -0.011

TAGLN (UniProt Q01995)
inactive: [1] -0.062

SYNJ1 (UniProt O43426)
inactive: [1] 0.045 | [2] 0.002 | [3] 0.076 | [4] 0.05 | [5] 0.064

STRN3 isoform 2 (UniProt Q13033)
inactive: [1] 0.029 | [2] 0.02 | [3] 0.113 | [4] -0.077 | [5] -0.176

SUFU (UniProt Q9UMX1)
inactive: [1] -0.01

STK26 (UniProt Q9P289)
inactive: [1] -0.077 | [2] -0.029 | [3] -0.006 | [4] 0.004 | [5] 0.026

SYF2 (UniProt O95926)
inactive: [1] 0.032 | [2] 0.029 | [3] -0.077 | [4] 0.145 | [5] 0.065

TAX1BP1 (UniProt Q86VP1)
inactive: [1] -0.008 | [2] 0.09 | [3] 0.042 | [4] 0.029 | [5] -0.007

SUCLG2 (UniProt Q96I99)
inactive: [1] -0.006 | [2] 0.066 | [3] 0.079 | [4] -0.031 | [5] -0.032

SUCLG1 (UniProt P53597)
inactive: [1] 0.004 | [2] 0.073 | [3] 0.042 | [4] -0.021 | [5] -0.041

STOM (UniProt P27105)
inactive: [1] 0.06 | [2] -0.019 | [3] -0.014 | [4] -0.021 | [5] 0.082
